Publication PMC10630959, “Dissimilar Effect of P-Glycoprotein and Breast Cancer Resistance Protein Inhibition on the Distribution of Erlotinib to the Retina and Brain in Humans and Mice” (Molecular Pharmaceutics, 2023)

System: OCTs, OCTNs and OATPs at the mouse BRB
Assay: [^3H]erlotinib in situ carotid perfusion, retina transport with SLC transporter inhibitors
Format: in vivo
Conditions: 100 μM fexofenadine, 5 mM TEA, 100 μM estrone-3-sulfate, 0.5 mM ergothioneine, 5 mM L-carnitine
Procedure: Transport of [^3H]erlotinib at the luminal BRB and BBB was measured by in situ carotid perfusion.[11],[25] With this method, the vascular composition of the brain and the eye is completely substituted by an artificial fluid, whose constitution can be modified. The perfusion fluid for the in situ carotid perfusion consisted of Krebs carbonate-buffered physiological saline with 128 mM NaCl, 24 mM NaHCO3, 4.2 mM KCl, 2.4 mM NaH2PO4, 1.5 mM CaCl2, 0.9 mM MgSO4, and 9 mM D-glucose, warmed to 37 °C and gassed with 95% O2/5% CO2 to adjust the pH to 7.40. The pH of the perfusion fluid was checked and adjusted with a digital pH meter (±0.05 pH units) immediately before perfusion. Tissue accumulation of [^3H]erlotinib was measured under trans-influx zero to determine the kinetic conditions required to measure transport solely across the membrane, separating the sucrose (vascular) from the nonsucrose (tissue parenchyma) space. […]
Mice were anesthetized with ketamine and xylazine (140 and 8 mg/kg, intraperitoneal), and a catheter was inserted into the right carotid artery after ligation of the appropriate vessels. […] Dual-label counting was carried out in a Tri-Carb 2810TR instrument (PerkinElmer) to measure radioactivity (disintegrations per minute, dpm). […] Therefore, radioactivity in the whole eye was assumed to represent only the posterior segment of the eye, which comprises the retina. […]

For `CC(C)(C(=O)O)c1ccc(C(O)CCCN2CCC(C(O)(c3ccccc3)c3ccccc3)CC2)cc1` (stereo not shown) [fexofenadine], the “significant changes in retina [^3H]erlotinib transport on co-perfusion” value was “None”.
